## Screening data, single-dose tests

Sequences of proteins named here, by UniProt entry; tags and fusion partners are left off. Residues count along the entry.
UniProt A4I591, 1-473: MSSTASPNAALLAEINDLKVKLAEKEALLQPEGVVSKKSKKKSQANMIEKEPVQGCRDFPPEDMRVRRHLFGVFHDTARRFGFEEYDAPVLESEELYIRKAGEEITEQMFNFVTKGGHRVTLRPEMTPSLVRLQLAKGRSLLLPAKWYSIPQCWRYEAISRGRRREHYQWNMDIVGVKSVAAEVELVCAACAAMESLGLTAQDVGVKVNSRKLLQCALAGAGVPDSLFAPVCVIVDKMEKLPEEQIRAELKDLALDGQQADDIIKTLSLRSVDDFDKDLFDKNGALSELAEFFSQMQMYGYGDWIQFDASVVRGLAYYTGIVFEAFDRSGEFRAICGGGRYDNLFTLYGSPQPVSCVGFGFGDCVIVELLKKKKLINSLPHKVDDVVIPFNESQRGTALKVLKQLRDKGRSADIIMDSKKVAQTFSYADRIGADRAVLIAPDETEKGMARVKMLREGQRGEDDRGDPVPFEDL
UniProt I6X8D2, whole entry: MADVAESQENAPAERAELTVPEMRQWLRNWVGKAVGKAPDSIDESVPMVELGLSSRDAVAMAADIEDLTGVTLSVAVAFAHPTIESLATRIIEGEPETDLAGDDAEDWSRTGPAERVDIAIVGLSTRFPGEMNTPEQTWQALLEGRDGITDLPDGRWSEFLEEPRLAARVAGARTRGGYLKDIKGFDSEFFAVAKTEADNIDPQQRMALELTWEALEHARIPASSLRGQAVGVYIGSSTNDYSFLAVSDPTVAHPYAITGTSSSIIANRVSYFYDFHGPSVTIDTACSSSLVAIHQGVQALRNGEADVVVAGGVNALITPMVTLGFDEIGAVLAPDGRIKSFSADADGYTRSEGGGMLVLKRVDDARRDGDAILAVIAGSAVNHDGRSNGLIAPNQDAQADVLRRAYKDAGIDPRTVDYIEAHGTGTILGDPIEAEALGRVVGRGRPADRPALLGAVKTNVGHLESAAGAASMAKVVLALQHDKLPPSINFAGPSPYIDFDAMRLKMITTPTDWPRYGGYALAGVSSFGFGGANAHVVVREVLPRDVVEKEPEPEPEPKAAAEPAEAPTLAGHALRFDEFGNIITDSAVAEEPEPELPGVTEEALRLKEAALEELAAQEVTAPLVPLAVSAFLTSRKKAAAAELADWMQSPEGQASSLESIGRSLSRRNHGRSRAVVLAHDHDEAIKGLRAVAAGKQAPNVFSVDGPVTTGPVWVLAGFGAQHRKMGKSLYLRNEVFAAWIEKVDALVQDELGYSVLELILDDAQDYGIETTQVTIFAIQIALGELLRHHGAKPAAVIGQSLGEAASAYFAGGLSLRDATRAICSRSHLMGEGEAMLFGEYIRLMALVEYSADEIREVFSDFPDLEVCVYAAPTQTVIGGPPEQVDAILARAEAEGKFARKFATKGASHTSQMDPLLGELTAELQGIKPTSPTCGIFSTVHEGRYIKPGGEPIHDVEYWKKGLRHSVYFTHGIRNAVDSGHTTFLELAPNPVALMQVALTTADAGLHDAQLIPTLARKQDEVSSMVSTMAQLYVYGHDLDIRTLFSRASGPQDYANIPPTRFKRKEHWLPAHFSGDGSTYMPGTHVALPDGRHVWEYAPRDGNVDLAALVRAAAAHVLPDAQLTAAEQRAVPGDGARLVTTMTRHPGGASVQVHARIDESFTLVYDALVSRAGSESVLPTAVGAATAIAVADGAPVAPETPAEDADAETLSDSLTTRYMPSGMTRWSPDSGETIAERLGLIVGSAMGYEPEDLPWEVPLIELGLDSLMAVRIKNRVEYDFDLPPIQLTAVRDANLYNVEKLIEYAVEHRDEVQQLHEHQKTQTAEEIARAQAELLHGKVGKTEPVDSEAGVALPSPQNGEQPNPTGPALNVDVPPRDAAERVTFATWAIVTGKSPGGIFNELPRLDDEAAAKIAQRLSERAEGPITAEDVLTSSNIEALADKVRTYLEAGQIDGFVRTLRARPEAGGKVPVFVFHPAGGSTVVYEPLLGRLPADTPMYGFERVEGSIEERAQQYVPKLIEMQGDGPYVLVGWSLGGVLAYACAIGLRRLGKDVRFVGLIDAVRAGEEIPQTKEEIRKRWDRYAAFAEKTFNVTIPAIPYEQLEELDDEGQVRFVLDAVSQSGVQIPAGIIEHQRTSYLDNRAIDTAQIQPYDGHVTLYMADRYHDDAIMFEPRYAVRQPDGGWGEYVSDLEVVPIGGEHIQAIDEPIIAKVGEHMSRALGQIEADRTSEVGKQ

Measurements from “University of Dundee, Small-Polar-MMV Screening Library” (2021), ChEMBL document CHEMBL3988442.

LiHisRS: 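Histidine-tRNA ligase, Leishmania infantum (UniProt A4I591). Enzyme assay of histidyl-tRNA synthetase; the read-out is not stated. Concentration: 30 µM. Higher reads as stronger inhibition (inferred: compounds with an IC50 in retests scored well above the rest). The assay is labelled LdHisRS but filed under L. infantum. About 69,000 compounds were tested under these conditions; 0.6% (about 410) showed 50% or more at least once.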
Pks13 thioesterase: 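Polyketide synthase Pks13, Mycobacterium tuberculosis (UniProt I6X8D2). Enzyme assay of the thioesterase domain of polyketide synthase 13; the read-out is not stated. Compounds at 30 µM. The record gives no direction; the compounds picked for IC50 retests had high values, so higher reads as stronger inhibition. About 67,000 compounds were tested under these conditions; 0.46% (about 300) showed 50% or more at least once.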
Leishmania in macrophages: 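Cell assay of Leishmania donovani living inside macrophages; the read-out is not stated. Tested at 30 µM. The record gives no direction; compounds that gave an IC50 in retests scored well above the rest, so higher reads as stronger inhibition. About 69,000 compounds were tested under these conditions; 1.5% (about 1,000) showed 50% or more at least once.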

Results are given as percent effect. The record does not define 0% and 100%; most values in the screen are far below 50% and negative numbers occur (in some assays of this library far below -100). Compounds were drawn at random from those tested, without regard to their results. Two or more numbers in one place are separate tests of the same structure; such repeats can differ widely. A dash means the value is not listed here; it may have been measured.

compound	LiHisRS	Pks13 thioesterase	Leishmania in macrophages
[H][C@@]12CCC(=O)N(CCc3c[nH]cn3)[C@]1([H])CCN(Cc1nccn1C)C2	-	-	-0.0427%
O=C1[C@H]2CC[C@H](CN(C3CCOCC3)C2)N1Cc1cscn1	14.4%	13.69%	-
CCCc1nc(CN(CC)C(=O)c2ccc(OC)c(OC)c2)no1	17.74%	-11.38%	22.82%
CC(C)N1CCCn2c(nc(CNC(=O)c3nccn3C)cc2=O)C1.O=C(O)C(F)(F)F.O=C(O)C(F)(F)F	-	-	20.3%
CCn1nc(NC(=O)Cn2ccc(C(C)=O)n2)c2ccccc21	-12.64%	-2.441%	12.8%
CCCn1cc(C(=O)NCCCC(N)=O)c2ccccc21	9.948%	-32.07%	41.21%
CN1C[C@H]2N(c3ncccn3)CCC[C@@]2(C(=O)NCC2CC2)C1	10%	-18.76%	-
[H][C@]12COC[C@H](NS(C)(=O)=O)[C@@]1([H])CN(Cc1ccco1)C2	-	-	-9.265%
O=C(c1cc2c(s1)CCC2)N1CCCC1c1noc(C2CC2)n1 (stereo not shown)	16.36%	-8.167%	-19.94%
O=C(C1CCC2(CCN(CC3CCOCC3)CC2)O1)N1CCCCO1 (stereo not shown)	17.48%	-202.3%	-
CCS(=O)(=O)c1ccc(N2CCC(N)CC2)cc1	11.57%	-8.144%	63.99%
COCC1CN(Cc2cc(C)on2)Cc2cn(CC3CC3)nc21 (stereo not shown)	11.11%	-6.198%	12.4%
Cc1noc(C)c1CN1C[C@@H]2COC[C@H](C(=O)N3CCCCO3)[C@@H]2C1	9.489%	-21.7%	-
Cn1cccc1C(=O)N1CCn2nnc(COc3cccnc3)c2C1	-70.64%	-7.18%	-
CC1N(CC2CC2)C(=O)COC12CCN(Cc1nccs1)CC2.O=C(O)C(F)(F)F (stereo not shown)	-	-	26.67%
Cc1nc2c(c(NCc3cnc4c(c3)CCC4)n1)CNC2	18.09%	-7.038%	41.34%
CN1CCN(Cc2ccccc2Oc2ccc(C(N)=O)cn2)CC1	19.66%	-39.65%	1.397%
CCN(C)C(=O)c1ccc(N(C)Cc2cc(-c3cccnc3)no2)nc1	14.52%	-26.17%	14.5%
[H][C@@]12CCN(C(=O)CC)C[C@]1([H])OCCN(Cc1ccc(OC)cc1)C2=O	-	-	-18.61%
Cc1nn(C)c2nc(NCCN3CCCC(C(N)=O)C3)sc12 (stereo not shown)	22.83%	-9.975%	47.54%
CCCN1CCC(c2nc3ccc(-c4cccc(OC)c4)cn3n2)CC1.O=C(O)C(F)(F)F	-	-	66.14%
COc1ccccc1/C=C/CNCC1CCc2nncn2C1 (stereo not shown)	30.34%	-16.14%	2.219%
O=C(CNC(=O)c1ccoc1)NCCOc1ccc2c(c1)CCC2	25%	-25.74%	33.38%
N#CC1(NC(=O)c2ccn(-c3ccccc3Cl)n2)CCSC1 (stereo not shown)	20.59%	-14.98%	27.95%
Cc1ncc(CN2Cc3ccccc3O[C@]3(CC[C@H](CO)CC3)C2)cn1.Cl	-	-	12.28%
COCc1nc(CN2CC(=O)N(C)c3ccccc3C2=O)no1	22.39%	-47.34%	23.07%
CNc1nccnc1C1CN(Cc2ccc(OCC(=O)O)cc2)CCO1 (stereo not shown)	5.674%	0.6089%	24.11%
COC(=O)CNC(=O)C(C)Oc1ccccc1C(F)(F)F (stereo not shown)	17.74%	-12.6%	14.83%
COc1nc(C)c(C(=O)N(C)Cc2nc(-c3ccccn3)no2)s1	20.39%	-9.366%	-10.68%
Cl.Cl.[H][C@@]12CNC[C@]1([H])N(Cc1ccsc1)CCO2	-	-	22.24%
Cc1nn(C)c(C)c1C1COCCN1C(=O)c1ccc(Cl)o1 (stereo not shown)	9.615%	-21.54%	1.99%
O=C([C@H]1CN(Cc2nccs2)C[C@H]2OCC[C@@H]12)N1CCCCO1	7%	-1.273%	-
Cc1cc(CN(C)C2CCN(c3cccc(-c4cscn4)c3)CC2)on1	13.98%	-16.07%	19.61%
Cc1cccc(C)c1NCc1noc(C2CC2)n1	11.69%	-7.191%	12.59%
CS(=O)(=O)NC[C@H]1Cn2c(-c3ccc(Cl)cc3)cnc2CO1	33.78%	-18.51%	9.771%
O=C(COCC(F)(F)F)N1CCCC(n2cccn2)C1 (stereo not shown)	3.67%	-7.177%	17.74%
[H][C@@]12CCN(c3ncccn3)[C@]1([H])CC[C@H](c1nc(C)no1)O2	-	-	5.115%
O=C(O)C(F)(F)F.O=C1CC(c2cccnc2)C2(CCN(S(=O)(=O)C3CC3)CC2)N1 (stereo not shown)	-	-	20.34%
COCCCC(=O)N(C)c1ccc(F)c(Cl)c1	-1.408%	-16.58%	10.71%
CN(C)C(=O)N1CC[C@H]2[C@H]1CCN2c1nncs1	20.69%	-32.22%	-
O=C(Cc1ccsc1)N1CCC(c2noc(-c3cccnc3)n2)CC1	30.53%	-5.445%	-6.041% & 21.71%
O=C1C(N2CCN(c3ccccc3Cl)CC2)CCN1C1CCOCC1 (stereo not shown)	-1.754%	-3.867%	7.984%
Cc1cnn(C2(C(=O)O)CCN(c3ccnc4cc(Cl)ccc34)CC2)c1	14.14%	-3.435%	23.47%
CCc1nc(CN2CCCC(NCc3cccc(C(N)=O)c3)C2)no1 (stereo not shown)	0%	-1.634%	17.5%
CC1CCCN(C(=O)NCC(F)F)C1 (stereo not shown)	4.255%	-12.97%	-4.129%
CN1CCC(CNC(=O)Cc2ccc(N(C)C)cc2)CC1	8.571%	-30.06%	15.22%
CC(C)Cc1cc(C(=O)NCCn2nc3ccccn3c2=O)[nH]n1	-33.96%	6.306%	7.621%
Cn1c(Cn2cccn2)nnc1C1CCCN(c2ccncc2)C1 (stereo not shown)	13.46%	-27.5%	24.16%
COc1ncccc1NC(=O)N1CCC(CN2CCOCC2)CC1	6.796%	-7.31%	15.61%
CC1=NN(CC(=O)N2CC[C@@H]3[C@@H](CCC(=O)N3CC(C)C)C2)CC1	11.29%	-22.19%	-
Cc1ccc(SCCN(C)C(=O)c2cn(CCN)nn2)cc1	11.67%	-19.89%	11.06%
CC(NC(=O)N(C)Cc1cnn(C)c1)c1nncn1C (stereo not shown)	9.091%	-9.233%	19.51%
CCOc1cncc(N2CCN(c3ccccc3F)CC2)n1	15.32%	27.13%	-12.25%
Cc1ccccc1OCCC(=O)NC(C)c1nnc2n1CCCCC2 (stereo not shown)	11.4%	-0.5412%	21.82%
CCCc1cc(=O)n(CC(=O)NC(C)C)c(-n2nc(C)cc2C)n1	17.98%	3.093%	5.113%
[H][C@@]12CCN(Cc3cc(C)on3)C[C@@]1([H])O[C@@H](C)C2	-	-	15.24%
Cc1ccc(S(=O)(=O)N2CCC(Oc3cccnn3)CC2)c(C)c1	6.612%	-4.37%	34.5%
O=C(c1cccnc1O)N1CCN(CCc2cccs2)CC1	19.44%	-7.522%	17.85%
Cn1nc2c(cc1=O)CN(Cc1nc3ccccc3c(=O)[nH]1)CC2	24.71%	-17.48%	6.734%
CCCC1CCCN(C(=O)CCn2cccn2)CC1 (stereo not shown)	14.68%	-36.46%	-12.18%
CCn1cc2c(n1)C(COC)CN(c1ccc(C)nn1)C2.O=C(O)C(F)(F)F.O=C(O)C(F)(F)F (stereo not shown)	-	-	9.506%
CC1CCN(CC(=O)NC(C#N)c2cnn(-c3ccccc3)c2)CC1 (stereo not shown)	8.602%	-1.393%	-12.12%
O=C(N[C@H]1CN(Cc2cccs2)[C@@H]2CCCO[C@H]12)c1cccnc1	25.71%	-28.53%	-

Once more, the final 7:

{"compound": "Cc1ccc(S(=O)(=O)N2CCC(Oc3cccnn3)CC2)c(C)c1", "LiHisRS": 6.612, "Pks13 thioesterase": -4.37, "Leishmania in macrophages": 34.5}
{"compound": "O=C(c1cccnc1O)N1CCN(CCc2cccs2)CC1", "LiHisRS": 19.44, "Pks13 thioesterase": -7.522, "Leishmania in macrophages": 17.85}
{"compound": "Cn1nc2c(cc1=O)CN(Cc1nc3ccccc3c(=O)[nH]1)CC2", "LiHisRS": 24.71, "Pks13 thioesterase": -17.48, "Leishmania in macrophages": 6.734}
{"compound": "CCCC1CCCN(C(=O)CCn2cccn2)CC1", "stereo": "stereo not shown", "LiHisRS": 14.68, "Pks13 thioesterase": -36.46, "Leishmania in macrophages": -12.18}
{"compound": "CCn1cc2c(n1)C(COC)CN(c1ccc(C)nn1)C2.O=C(O)C(F)(F)F.O=C(O)C(F)(F)F", "stereo": "stereo not shown", "Leishmania in macrophages": 9.506}
{"compound": "CC1CCN(CC(=O)NC(C#N)c2cnn(-c3ccccc3)c2)CC1", "stereo": "stereo not shown", "LiHisRS": 8.602, "Pks13 thioesterase": -1.393, "Leishmania in macrophages": -12.12}
{"compound": "O=C(N[C@H]1CN(Cc2cccs2)[C@@H]2CCCO[C@H]12)c1cccnc1", "LiHisRS": 25.71, "Pks13 thioesterase": -28.53}